Data taken from PubChem BioAssay AID2685 (National Center for Advancing Translational Sciences (NCATS), 2010).
Screen size: about 320,000 compounds; about 2,100 (0.66%) were called active. Inconclusive means that the source gave no clear call. Such entries were picked first, then a sample of the others. The call rests on the fitted dose curve; in most records, active means well fitted inhibition curve with a large enough effect in the signal ratio, with a control signal flat (not every such curve was filed as active); inconclusive means small, poorly fitted or top-dose-only effect, or effect the other way, or a change in a side signal; inactive means flat fitted curve, though single readings scatter; the % refers to the signal ratio. Potencies beside an inconclusive call are fits to weak or partial responses and may not hold up.

assay: qHTS Assay for Lipid Storage Modulators in Drosophila S3 Cells; conditions: BODIPY lipid droplet fluorescence, 18-24 h, cells fed with added oleic acid; lipid storage change, negative = inhibition: at 46.1 µM (top of the series) unless noted
How it was run: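 Laser-scanning cytometry quantifies lipid droplet accumulation (500–530 nm total intensity; droplet/cell object ratio) in oleic acid-fed (400 uM added) Drosophila S3 cells treated with a concentration series. 20 uM Triacsin C defined 100% inhibition.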
On the % scale 0 is the no-effect control and ±100 the full control effect; potency means the concentration at half of the fitted maximal effect.

With `O=C(Cn1cc2c(n1)CCCCC2)NCc1ccccc1` as the compound, how does the lipid storage change, negative = inhibition read?
Its lipid storage change, negative = inhibition is inconclusive: 12.9%.

Which lipid storage change, negative = inhibition does the source give for `O=C(c1ccccc1Sc1ccc([N+](=O)[O-])cc1Cl)N1CCOCC1` here?
The lipid storage change, negative = inhibition was inconclusive: -5.89%.

With `O=C1COc2ccc(NC(=O)N3CCN(c4ccc(F)cc4)CC3)cc2N1` as the compound, how does the lipid storage change, negative = inhibition read?
The lipid storage change, negative = inhibition was inconclusive: 14.8%.

For `C[C@H](NC(=O)c1nc[nH]c1C(=O)N(C)Cc1ccccc1)C(=O)OC(C)(C)C`, which Potency is on record?
Its Potency is active: 0.651 µM.

For `COc1ccc2[nH]c(=O)c(C3c4cc(OC)c(OC)cc4CCN3C(=O)c3ccco3)cc2c1` (centres undefined), which Potency is on record?
Its Potency is inconclusive: 5.17 µM [falling, single point].

With `CSc1nc(O)c(C(c2ccc(C)cc2)c2c(O)nc(SC)[nH]c2=O)c(=O)[nH]1` as the compound, how does the lipid storage change, negative = inhibition read?
Its lipid storage change, negative = inhibition is inconclusive: -2.97%.

Which lipid storage change, negative = inhibition does the source give for `CNC(C)C#Cc1ccc2c(=O)c3c(OC)cccc3oc2c1` (centres undefined) here?
The lipid storage change, negative = inhibition was inconclusive: -90.7%.

With `CSCC[C@H](NC(=O)[C@@H]1Cc2ccccc2CN1)C(=O)NC[C@H]1CC[C@H](C(=O)O)CC1` as the compound, how does the lipid storage change, negative = inhibition read?
Its lipid storage change, negative = inhibition is inconclusive: 6.11%.

For `Cc1ccc2c(C)c(C(=O)N(Cc3ccc(N(C)C)cc3)C3CCS(=O)(=O)C3)oc2c1` (centres undefined), which Potency is on record?
The Potency was inconclusive: 11.6 µM [falling, partial curve].

With `COc1ccc(N(CC(=O)N2CCC(C(N)=O)CC2)S(=O)(=O)c2ccccc2)cc1` as the compound, how does the lipid storage change, negative = inhibition read?
Its lipid storage change, negative = inhibition is inconclusive: -75.3%.

For `CC(C)(C)C(=O)c1cn(CC(=O)O)c2ccccc12`, which lipid storage change, negative = inhibition is on record?
Its lipid storage change, negative = inhibition is inconclusive: -14%.

Which Potency does the source give for `Nc1nc(SCC(=O)NCc2ccccc2)n[nH]1` here?
The Potency was inconclusive: 29.1 µM [activator, single point].

Which lipid storage change, negative = inhibition does the source give for `COC(=O)c1ccccc1NC(=O)COc1ccccc1[N+](=O)[O-]` here?
The lipid storage change, negative = inhibition was inconclusive: -3.95%.

For `CCNc1nc(NCC)nc(OCCOC(=O)Nc2ccccc2)n1`, which lipid storage change, negative = inhibition is on record?
Its lipid storage change, negative = inhibition is inconclusive: 23.3%.

With `Cc1ccc2nc(-c3ccccc3)c(CC(=O)O)c(C(=O)O)c2c1` as the compound, how does the Potency read?
Its Potency is inconclusive: 0.0046 µM [activator, full curve, poor fit].

For `COc1ccc(C(=O)NC2CCN(CC(=O)N3CCCCC3)CC2)cc1`, which Potency is on record?
Its Potency is inconclusive: 0.731 µM [activator, partial curve, poor fit].

Which lipid storage change, negative = inhibition does the source give for `COc1ccc(-c2cc(=O)oc3c(C)c(OCC(=O)NCC4CCC(C(=O)O)CC4)ccc23)cc1` (centres undefined) here?
The lipid storage change, negative = inhibition was inconclusive: -47.8%.

For `Cc1ccc(S(=O)(=O)N2C(=O)CCC2C(=O)N2CCN(C)CC2)cc1` (centres undefined), which lipid storage change, negative = inhibition is on record?
The lipid storage change, negative = inhibition was inconclusive: -2.48%.

Which Potency does the source give for `CCn1c(SCC(=O)Nc2ccccc2C(=O)OC)nc2c1c(=O)n(C)c(=O)n2C` here?
Its Potency is inconclusive: 3.66 µM [falling, single point].

Which lipid storage change, negative = inhibition does the source give for `CCc1nnc(NC(=O)CSc2nnc(-c3ccco3)n2CC)s1` here?
Its lipid storage change, negative = inhibition is inconclusive: 18.7%.

Which Potency does the source give for `OCCCCC#Cc1c(-c2ccsc2)sc2ccccc12` here?
Its Potency is inconclusive: 11.6 µM [activator, single point].

Which lipid storage change, negative = inhibition does the source give for `CCC1Oc2ccc(C)cc2N(CC(=O)NCC2CCCO2)C1=O` (centres undefined) here?
Its lipid storage change, negative = inhibition is inconclusive: 97.6%.

For `Cc1ccc2c(c1)N(CC(=O)OCC(=O)NCc1ccccc1)C(=O)CO2`, which lipid storage change, negative = inhibition is on record?
The lipid storage change, negative = inhibition was inconclusive: -5.93%.

For `Cc1nnc(SCCC(=O)Nc2nc(-c3ccccc3)ns2)s1`, which lipid storage change, negative = inhibition is on record?
Its lipid storage change, negative = inhibition is inconclusive: 12.1%.

Which Potency does the source give for `COCCSc1nnc(NC(=O)CCS(=O)(=O)Cc2ccccc2)s1` here?
The Potency was inconclusive: 25.9 µM [activator, single point].

For `O=S(=O)(NCc1ccccc1)NCc1cccc(C(F)(F)F)c1`, which lipid storage change, negative = inhibition is on record?
The lipid storage change, negative = inhibition was inconclusive: -8.84%.

For `NS(=O)(=O)c1ccc(CCN2C(=O)CCC2=O)cc1`, which lipid storage change, negative = inhibition is on record?
The lipid storage change, negative = inhibition was inconclusive: -45.8%.

For `O=C1C2=C(CCCC2)C(=O)N1CNc1ccccc1`, which lipid storage change, negative = inhibition is on record?
Its lipid storage change, negative = inhibition is inconclusive: -1.21%.

Which Potency does the source give for `COc1c(S(=O)(=O)n2nc(C)cc2C)ccc(Cl)c1Cl` here?
The Potency was inconclusive: 0.058 µM [rising, full curve, poor fit].

With `CCOC(=O)Cc1csc(NC(=O)c2cc(=O)c3ccccc3o2)n1` as the compound, how does the lipid storage change, negative = inhibition read?
The lipid storage change, negative = inhibition was inconclusive: -12% [at 9.22 µM].

Which lipid storage change, negative = inhibition does the source give for `COc1ccc(Oc2cc(Cl)nc(N)n2)cc1` here?
The lipid storage change, negative = inhibition was inconclusive: -1.96%.

For `O=Cc1ccc(-c2ccc([N+](=O)[O-])cc2Cl)o1`, which lipid storage change, negative = inhibition is on record?
Its lipid storage change, negative = inhibition is inconclusive: -13.4%.

For `COCCNC(=O)c1ccc(C2SCC(=O)N2CCc2ccccc2)cc1` (centres undefined), which lipid storage change, negative = inhibition is on record?
Its lipid storage change, negative = inhibition is inconclusive: -10.4%.

With `CCC(C)Nc1nc(SC(C(C)=O)C(C)=O)nc(N(C)C)n1` (centres undefined) as the compound, how does the Potency read?
The Potency was inconclusive: 14.6 µM [activator, partial curve].

With `CCN(CC)c1ccc(/C=N/NS(=O)(=O)c2ccc(CNC(C)=O)cc2)cc1` as the compound, how does the lipid storage change, negative = inhibition read?
The lipid storage change, negative = inhibition was inconclusive: 52.3%.

Which lipid storage change, negative = inhibition does the source give for `Cc1ccc(CN2CCN(/N=C\c3cccc([N+](=O)[O-])c3)CC2)cc1` here?
The lipid storage change, negative = inhibition was inconclusive: 13.9%.

For `O=C(NCCN1CCNC1=O)C1CCC(=O)N(Cc2ccccc2F)C1` (centres undefined), which Potency is on record?
Its Potency is inconclusive: 0.058 µM [activator, full curve, poor fit].

With `Cn1cc(SCC(=O)NC2CCCCC2)c2ccccc21` as the compound, how does the lipid storage change, negative = inhibition read?
The lipid storage change, negative = inhibition was inconclusive: 30%.

For `N#C/C(=N\Nc1ccc(Cl)cc1)C(=O)c1ccsc1`, which lipid storage change, negative = inhibition is on record?
The lipid storage change, negative = inhibition was inconclusive: -19.5%.

For `CNC(=O)Cn1nc(C)c2ccccc2c1=O`, which Potency is on record?
Its Potency is inconclusive: 0.116 µM [falling, full curve].

Which Potency does the source give for `COc1ccc(CNC(=O)CSc2nnc(C)c(=O)[nH]2)cc1` here?
Its Potency is inconclusive: 18.4 µM [activator, partial curve, poor fit].

Which lipid storage change, negative = inhibition does the source give for `CCOc1ccc(-c2cc(CCCC(=O)NCc3ccc(C)cc3)no2)cc1` here?
Its lipid storage change, negative = inhibition is inconclusive: -17.8%.

With `O=C(CNC(=O)c1ccccc1Cl)NCC(c1cccs1)N1CCOCC1` (centres undefined) as the compound, how does the lipid storage change, negative = inhibition read?
Its lipid storage change, negative = inhibition is inconclusive: 1.26%.

Which Potency does the source give for `Cc1ccc2cc(CCNC(=O)c3cccs3)c(=O)[nH]c2c1` here?
Its Potency is inconclusive: 1.46 µM [activator, full curve].

With `COc1ccc(N2CCN(c3nc4ccccn4c(=O)c3/C=C(\C#N)S(=O)(=O)c3ccccc3)CC2)cc1` as the compound, how does the lipid storage change, negative = inhibition read?
Its lipid storage change, negative = inhibition is inconclusive: -22.2%.

With `COc1ccc(/C=C/C(=O)c2ccc(NC3=NCCCS3)cc2)cc1OC` as the compound, how does the lipid storage change, negative = inhibition read?
The lipid storage change, negative = inhibition was inconclusive: 33.3%.

Which lipid storage change, negative = inhibition does the source give for `Cc1ccc(N2CCN(c3ccc(NC(=O)CCC(=O)O)cc3)CC2)cc1` here?
Its lipid storage change, negative = inhibition is inconclusive: 6.93%.

For `C=CCC1(CC=C)CCCN1C(=O)C1CCC(=O)N(CCc2ccc(Cl)cc2)C1` (centres undefined), which lipid storage change, negative = inhibition is on record?
The lipid storage change, negative = inhibition was inconclusive: -87.7%.

With `CCCCN(C(=O)c1cc(-c2ccco2)nc2ccccc12)c1c(N)n(CCC)c(=O)[nH]c1=O` as the compound, how does the lipid storage change, negative = inhibition read?
The lipid storage change, negative = inhibition was inconclusive: 17.4%.
